Results from article PMC9805450.
Results are given in words; binding and its absence hold for the method and conditions named. In cells and extracts the contact can be indirect. Some entries that bind do so weakly or less than the wild type.

Chains of the proteins cited; added tags and fusions are not shown.
UniProt Q9NRC8: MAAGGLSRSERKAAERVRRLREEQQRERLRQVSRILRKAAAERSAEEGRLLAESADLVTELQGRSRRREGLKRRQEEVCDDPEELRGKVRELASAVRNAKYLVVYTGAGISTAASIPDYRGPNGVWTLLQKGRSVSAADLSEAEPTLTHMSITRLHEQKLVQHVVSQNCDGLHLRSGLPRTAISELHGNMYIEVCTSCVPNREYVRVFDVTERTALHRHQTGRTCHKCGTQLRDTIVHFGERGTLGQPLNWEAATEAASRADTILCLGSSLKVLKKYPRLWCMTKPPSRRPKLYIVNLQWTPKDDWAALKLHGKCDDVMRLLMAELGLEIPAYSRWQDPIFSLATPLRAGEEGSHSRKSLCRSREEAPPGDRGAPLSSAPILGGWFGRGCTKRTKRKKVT
UniProt P09429: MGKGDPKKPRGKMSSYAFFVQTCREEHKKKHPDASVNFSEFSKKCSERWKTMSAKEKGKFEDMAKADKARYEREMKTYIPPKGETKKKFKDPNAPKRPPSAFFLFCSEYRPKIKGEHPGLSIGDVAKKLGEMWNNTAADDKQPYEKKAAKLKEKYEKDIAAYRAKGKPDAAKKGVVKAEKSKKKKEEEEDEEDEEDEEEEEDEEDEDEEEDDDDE

Key:
[1] = biological target: SIRT7 (human (endogenous in HaCaT)) (UniProt Q9NRC8); assay: co-IP; Pierce crosslinking magnetic IP/Co-IP kit; antibody or control IgG cross-linked to protein A/G magnetic beads; keratinocyte lysate, 1 h at room temperature; Western blot; cells with or without IR, 1.0 uM RSV, siRNA against SIRT7
[2] = biological target: High-mobility group box 1 (HMGB1) (human (endogenous in HaCaT)) (UniProt P09429); assay: as above

| binding [1] | binding [2] | Substance |
| --- | --- | --- |
| binds |  | High-mobility group box 1 (HMGB1) (from UniProt P09429 1-215) |
|  | binds | SIRT7 (from UniProt Q9NRC8 1-400) (enzyme) |
